These are yes or no findings as the source states them, for the method shown. Binding calls can cover weak binding; strength is not graded here.
Biological target: HLA-A0201 on T2 cells without added peptide (human)
Experiment: T2 stabilization, flow cytometry: BB7 (anti-HLA-A2) staining of T2 cells alone or pulsed with peptide at 50, 10, 2 ug/ml
Settings: remark: other sources report otherwise

binding | Binder
binds | LVVVGADGV [RAS9-G12D peptide]
binds | LVVVGACGV [RAS9-G12C peptide]
